Experimental data from PubChem BioAssay AID248 (DTP/NCI, 2004).
The list is a part of this screen's results and no random one: it gathers tests that were run many times, whatever their T/C, doses with no T/C, and many T/C values between a quarter and a half above the control. Further doses and runs are listed elsewhere. T/C: endpoint of the treated group in % of that of the vehicle group. Some entries give survivors of the animals treated and no T/C: the source holds a T/C of zero for them, seemingly a mark for toxic or unscored doses. Some doses without a T/C left all or most animals alive at the check, yet need not have been tolerated: the source hardly ever lists a survival T/C far under the control, and the zero likely stands for such cases as well. Survivors were counted at the toxicity check, usually on the fifth day, unless a day is given; later deaths do not show. Schedule codes are those of the source, read here as Q, the interval in days (D) or hours (H), X, the number of doses. Some molecules as drawn cover several salts, stereoisomers or complexes of the source; a dose is that of the sample tested. Some entries were tested several times; the values are given in rising order. Some schedules carry Z or #; the key to these is not given. Where survival is the endpoint, the PubChem record calls one and a half times the control and up active, and a quarter to a half above the control has no call in these data; cut-offs in other NCI protocols can differ.

Test system: L1210 leukemia ip in BDF1 mice, survival T/C
Assay: NCI In Vivo Anticancer Drug Screen. Data for tumor model L1210 Leukemia (intraperitoneal) in B6D2F1 (BDF1) mice
Settings: T/C endpoint: mean survival time, higher T/C = longer survival
[1] = dose: 200.0 mg/kg/injection, schedule: Q04DX003 (ip), vehicle: Klucel (hydroxypropylcellulose) (HPC)
[2] = dose: 400.0 mg/kg/injection, schedule: Q01DX001 (ip), vehicle: carboxymethylcellulose (CMC)
[3] = dose: 100.0 mg/kg/injection, schedule: Q01DX009 (ip), vehicle: saline with Tween-80
[4] = dose: 100.0 mg/kg/injection, schedule: Q04DX003 (ip), vehicle: saline with Tween-80
[5] = dose: 200.0 mg/kg/injection, schedule: Q04DX003 (ip), vehicle: saline with Tween-80
[6] = dose: 400.0 mg/kg/injection, schedule: Q04DX003 (ip), vehicle: saline with Tween-80
[7] = dose: 50.0 mg/kg/injection, schedule: Q01DX009 (ip), vehicle: other
[8] = dose: 100.0 mg/kg/injection, schedule: Q01DX009 (ip), vehicle: other
[9] = dose: 400.0 mg/kg/injection, schedule: Q04DX002 (ip), vehicle: other
[10] = dose: 150.0 mg/kg/injection, schedule: Q01DX001 (ip), vehicle: saline
[11] = dose: 300.0 mg/kg/injection, schedule: Q01DX001 (ip), vehicle: saline
[12] = dose: 100.0 mg/kg/injection, schedule: Q01DX009 (ip), vehicle: Klucel (hydroxypropylcellulose) (HPC)
[13] = dose: 400.0 mg/kg/injection, schedule: Q04DX003 (ip), vehicle: Klucel (hydroxypropylcellulose) (HPC)
[14] = dose: 200.0 mg/kg/injection, schedule: Q01DX009 (ip), vehicle: saline with Tween-80
[15] = dose: 400.0 mg/kg/injection, schedule: Q01DX009 (ip), vehicle: saline with Tween-80
[16] = dose: 400.0 mg/kg/injection, schedule: Q01DX009 (ip), vehicle: Klucel (hydroxypropylcellulose) (HPC)
[17] = dose: 400.0 mg/kg/injection, schedule: Q01DX001 (ip), vehicle: saline

Question: `NCC(=O)NCCCCCCCCCCNC(=O)CN` was tested. Which survivor count (dose: 300.0 mg/kg/injection, schedule: Q01DX Z (ip), vehicle: saline) did it give?
Answer: 3 of 6

Question: How did the survivor count [1] turn out when `O=C(Oc1ccccc1I)c1cc(I)c(I)c(I)c1` was run?
Answer: 5 of 6

Question: How did the survivor count (dose: 40.0 mg/kg/injection, schedule: Q01DX001 (ip), vehicle: carboxymethylcellulose (CMC)) turn out when `Cc1n(CC(C)C)c2c([n+]1CC(=O)c1ccc([N+](=O)[O-])cc1)C(=O)c1ccccc1C2=O` was run?
Answer: 0 of 4

Question: And the survivor count (dose: 50.0 mg/kg/injection, schedule: Q01DX001 (ip), vehicle: carboxymethylcellulose (CMC))?
Answer: 0 of 4

Question: And the survivor count (dose: 80.0 mg/kg/injection, schedule: Q01DX001 (ip), vehicle: carboxymethylcellulose (CMC))?
Answer: 0 of 4

Question: What about the survivor count (dose: 100.0 mg/kg/injection, schedule: Q01DX001 (ip), vehicle: carboxymethylcellulose (CMC)) of the same compound?
Answer: 0 of 4

Question: And the survivor count (dose: 200.0 mg/kg/injection, schedule: Q01DX001 (ip), vehicle: carboxymethylcellulose (CMC))?
Answer: 0 of 4

Question: What about the survivor count [2] of the same compound?
Answer: 0 of 4

Question: `CCN(CC)Cc1c(C)cc2oc(=O)c3c(c2c1O)CCCC3` was tested. Which survivor count [2] did it give?
Answer: 1 of 4

Question: `C/C=C/C1N(C)CCCN1C` was tested. Which survivor count [3] did it give?
Answer: 3 of 6

Question: What about the survivor count [4] of the same compound?
Answer: 4 of 6

Question: And the survivor count [5]?
Answer: 0 of 6

Question: What about the survivor count [6] of the same compound?
Answer: 0 of 6

Question: `NNC(=O)Nc1cccnc1` was tested. Which survivor count (dose: 150.0 mg/kg/injection, schedule: Q01DX009 (ip), vehicle: saline) did it give?
Answer: 6 of 6

Question: And the survivor count (dose: 300.0 mg/kg/injection, schedule: Q01DX009 (ip), vehicle: saline)?
Answer: 6 of 6

Question: What does the source list for `CCCCNC(=O)OCc1cnc(C)n1Cc1ccccc1`?
Answer: T/C [7]: 93, 104, 109 % of control; survivor count [7]: 3 of 6; T/C [8]: 94, 97, 98 % of control; survivor count [8]: 3 of 3; survivor count (dose: 200.0 mg/kg/injection, schedule: Q01DX009 (ip), vehicle: other): 1 of 6 and 1 of 3; survivor count [2]: 3 of 6; survivor count [9]: 0 of 3 and 0 of 6

Question: For `Fc1nc2nc(C(F)(F)F)[nH]c2nc1F`, which survivor count (dose: 200.0 mg/kg/injection, schedule: Q01DX009 (ip), vehicle: saline) is on record?
Answer: 4 of 6

Question: And the survivor count (dose: 400.0 mg/kg/injection, schedule: Q01DX009 (ip), vehicle: saline)?
Answer: 0 of 6

Question: `CC[N+](C)(C)C1CCCCC1` was tested. Which survivor count [10] did it give?
Answer: 2 of 6

Question: And the survivor count [11]?
Answer: 0 of 6

Question: What does the source list for `C[P+](c1ccc(F)cc1)(c1ccc(F)cc1)c1ccc(F)cc1`?
Answer: survivor count [12]: 6 of 6; survivor count [1]: 0 of 6; survivor count [13]: 0 of 6

Question: For `CCOP(=O)(OCC)O/N=C(/SC)C(C)C`, which survivor count (dose: 75.0 mg/kg/injection, schedule: Q01DX001 (ip), vehicle: saline) is on record?
Answer: 3 of 6

Question: What about the survivor count [10] of the same compound?
Answer: 0 of 6

Question: And the survivor count [11]?
Answer: 0 of 6

Question: How did the survivor count (dose: 150.0 mg/kg/injection, schedule: Q01DX001 (ip), vehicle: other) turn out when `Cc1ccc(S(=O)(=O)C2=CC(=O)c3ccccc3C2=O)cc1` was run?
Answer: 0 of 6

Question: What about the survivor count (dose: 300.0 mg/kg/injection, schedule: Q01DX001 (ip), vehicle: other) of the same compound?
Answer: 0 of 6

Question: Which results are given for `COc1ccc(SC(=O)Nc2cc([N+](=O)[O-])ccc2Cl)cc1`?
Answer: survivor count [3]: 6 of 6; survivor count [14]: 6 of 6; survivor count [15]: 6 of 6

Question: For `N#CC(C#N)=Cc1ccc(Cl)c(Cl)c1`, which survivor count (dose: 400.0 mg/kg/injection, schedule: Q01DX001 (ip), vehicle: other) is on record?
Answer: 2 of 4

Question: Which results are given for `O=C1OC(=O)c2ccc(S)c3cccc1c23`?
Answer: survivor count [3]: 6 of 6; survivor count [15]: 6 of 6

Question: Which results are given for `O=C(SCC(NSc1ccccc1[N+](=O)[O-])C(=O)O)c1ccccc1` (stereo unspecified)?
Answer: survivor count (dose: 100.0 mg/kg/injection, schedule: Q04DX003 (ip), vehicle: Klucel (hydroxypropylcellulose) (HPC)): 6 of 6; survivor count [1]: 6 of 6; survivor count [13]: 6 of 6

Question: `CC(N=CN(C)C)c1cccc2ccccc12` (stereo unspecified) was tested. Which survivor count [6] did it give?
Answer: 3 of 6

Question: How did the T/C (dose: 15.0 mg/kg/injection, schedule: Q01DX Z (ip), vehicle: methylcellulose (MC)) turn out when `CN=C(NC)N/N=C(C)\C=N\NC(=NC)NC` was run?
Answer: 136 % of control

Question: And the survivor count (dose: 60.0 mg/kg/injection, schedule: Q01DX Z (ip), vehicle: methylcellulose (MC))?
Answer: 3 of 6

Question: And the survivor count (dose: 120.0 mg/kg/injection, schedule: Q01DX Z (ip), vehicle: methylcellulose (MC))?
Answer: 1 of 6

Question: And the survivor count (dose: 480.0 mg/kg/injection, schedule: Q01DX Z (ip), vehicle: saline)?
Answer: 3 of 6

Question: Which survivor count [3] does the source give for `CC(=O)c1cno[n+]1[O-]` here?
Answer: 0 of 6

Question: And the survivor count [14]?
Answer: 0 of 6

Question: And the survivor count [15]?
Answer: 0 of 6

Question: What does the source list for `O=C1OC(=O)C2C3C=CC(C3=C(c3ccccc3)c3ccccc3)C12` (stereo unspecified)?
Answer: survivor count [4]: 6 of 6; survivor count [1]: 6 of 6; survivor count [16]: 5 of 6; survivor count [15]: 3 of 6

Question: How did the survivor count (dose: 100.0 mg/kg/injection, schedule: Q01DX001 (ip), vehicle: saline) turn out when `O=C(CCl)c1c(O)[n+](Cc2ccccc2)c2ccccn12` was run?
Answer: 0 of 6

Question: And the survivor count (dose: 200.0 mg/kg/injection, schedule: Q01DX001 (ip), vehicle: saline)?
Answer: 1 of 6

Question: What about the survivor count [17] of the same compound?
Answer: 0 of 6

Question: With `O=C(Cl)C1CC2c3ccccc3C1([N+](=O)[O-])c1ccccc12` (stereo unspecified) as the compound, how does the survivor count [12] read?
Answer: 6 of 6

Question: How did the survivor count [11] turn out when `CN(C)c1ncnc2c1ncn2C1OC(CO)C2NP(=O)(N(CCCl)CCCl)OC21` (stereo unspecified) was run?
Answer: 3 of 6

Question: For `CCCCC1(C(C)C)C(=O)NC(=O)N(C)C1=O` (stereo unspecified), which survivor count [11] is on record?
Answer: 3 of 6

Question: Which survivor count (dose: 100.0 mg/kg/injection, schedule: Q01DX001 (ip), vehicle: saline with Tween-80) does the source give for `CCCCCCCCCN(CCCC)CCCC` here?
Answer: 0 of 6

Question: And the survivor count (dose: 200.0 mg/kg/injection, schedule: Q01DX001 (ip), vehicle: saline with Tween-80)?
Answer: 0 of 6

Question: What about the survivor count (dose: 400.0 mg/kg/injection, schedule: Q01DX001 (ip), vehicle: saline with Tween-80) of the same compound?
Answer: 0 of 6

Question: With `COC1OC(OC)[CH]([Hg][Cl])C1OC` (stereo unspecified) as the compound, how does the survivor count (dose: 25.0 mg/kg/injection, schedule: Q04DX003 (ip), vehicle: saline) read?
Answer: 3 of 6

Question: Which survivor count (dose: 200.0 mg/kg/injection, schedule: Q01DX009 (ip), vehicle: Klucel (hydroxypropylcellulose) (HPC)) does the source give for `CCN(CC)CCOc1cc(C)ccc1C(C)C` here?
Answer: 1 of 6

Question: And the survivor count [1]?
Answer: 0 of 6

Question: What about the survivor count [5] of the same compound?
Answer: 2 of 6

Question: And the survivor count [17]?
Answer: 0 of 4

Question: `C#CCSC(=S)OCC` was tested. Which survivor count (dose: 400.0 mg/kg/injection, schedule: Q04DX003 (ip), vehicle: other) did it give?
Answer: 5 of 6

Question: `O=C(O)c1cc(Cl)ccc1O` was tested. Which survivor count [9] did it give?
Answer: 3 of 3

Question: How did the survivor count [16] turn out when `COc1ccc(C=C2C3C=CC2C2C(=O)OC(=O)C32)cc1` (stereo unspecified) was run?
Answer: 4 of 6

Question: Which results are given for `O=C1C=C(O)c2ccccc2C1=O`?
Answer: survivor count (dose: 62.5 mg/kg/injection, schedule: Q01DX Z (ip), vehicle: other): 0 of 6; survivor count (dose: 125.0 mg/kg/injection, schedule: Q01DX Z (ip), vehicle: other): 0 of 6; survivor count (dose: 250.0 mg/kg/injection, schedule: Q01DX Z (ip), vehicle: other): 0 of 6

Question: With `CCOC(=O)Nc1ccc(NC(=O)OCC)cc1` as the compound, how does the survivor count [16] read?
Answer: 6 of 6
